We go through 1 molecule from paper PMC3143151.

Results are given in words; binding and its absence hold for the method and conditions named.

Experiment [1] deals with human C17-V5H8 (human) (UniProt Q9NRR1). As to the kind of experiment: SEC; affinity-purified human C17-V5H8 loaded; A280 nm elution profile against marker proteins; both purified. In general terms: SEC sorts molecules by how far they enter the pores of the column.
Experiment [2] shares this target. Nature of the experiment: SDS-PAGE under reducing and non-reducing conditions; purified human C17-V5H8, reducing and non-reducing loading conditions, Coomassie staining; both purified.

B1: human C17-V5H8 (protein, UniProt Q9NRR1 23-136)
chain: TPPTCYSRMRALSQEITRDFNLLQVSEPSEPCVRYLPRLYLDIHNYCVLDKLRDFVASPPCWKVAQVDSLKDKARKLYTIMNSFCRRDLVFLLDDCNALEYPIPVTTVLPDRQR
Regarding B1, the binding entry in the experiment with human C17-V5H8 (human) [1] and with human C17-V5H8 (human) [2] was “no binding” each time.
